According to doi:10.1101/2024.11.23.625001:
These are yes or no findings as the source states them, for the method shown. Binding seen in cells or lysates may run through a third protein. Some binding calls cover weakened binding; strength is not graded here. One block for each molecule: values may come before it.

The chains behind the UniProt entries cited, without tags or fusion partners. Residues count along the entry.
UniProt O43914, residues 22-113: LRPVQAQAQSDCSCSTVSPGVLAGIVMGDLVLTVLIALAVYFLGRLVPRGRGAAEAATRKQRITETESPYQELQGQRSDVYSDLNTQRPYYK

Target: T1, MS4A6A (human (endogenous in primary human macrophages)) (UniProt Q9H2W1)
T1 sequence: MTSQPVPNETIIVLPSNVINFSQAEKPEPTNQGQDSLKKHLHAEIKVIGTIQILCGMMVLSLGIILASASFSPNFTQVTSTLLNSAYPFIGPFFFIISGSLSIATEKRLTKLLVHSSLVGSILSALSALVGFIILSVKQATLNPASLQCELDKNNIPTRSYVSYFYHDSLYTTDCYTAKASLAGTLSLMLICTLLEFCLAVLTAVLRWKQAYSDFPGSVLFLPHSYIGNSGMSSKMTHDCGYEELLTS
Assay: co-IP

- binding: binds
Molecule: DAP12 (encoded by TYROBP) (from UniProt O43914 22-113)

- binding: no binding
B1: TREM2 (receptor, UniProt Q9NZC2 19-230)
chain: HNTTVFQGVAGQSLQVSCPYDSMKHWGRRKAWCRQLGEKGPCQRVVSTHNLWLLSFLRRWNGSTAITDDTLGGTLTITLRNLQPHDAGLYQCQSLHGSEADTLRKVLVEVLADPLDHRDAGDLWFPGESESFEDAHVEHSISRSLLEGEIPFPPTSILLLLACIFLIKILAASALWAAAWHGQKPGTHPPSELDCGHDPGYQLQTLPGLRDT
